Values from PubChem BioAssay AID504784 (Drosophila RNAi Screening Center, 2011).
Test: 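Search for regulators of lipid droplet storage in oleate-fed fly cells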 (primary screen). System: Drosophila Kc167 embryonic cells. Knock-down reagent: long dsRNA against Drosophila genes, about 250 ng dsRNA per well. Duration: 4 days. Treatment: cells fed 400 µM oleic acid bound to BSA. Measurement: 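Cells imaged and segmented; ratio of lipid droplet area to nuclear area, log-transformed, then normalised as a B-score over the screen; higher means more stored lipid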. Scale: droplet/nuclear area B-score: higher = more stored lipid (overstorage).
The screen tested about 17,000 reagents; this is an unselected part of those with a known target gene and a result. 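Each column is one replicate's B-score; the combined score over replicates was not deposited, so single values may mislead.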 A plus sign joins genes that one reagent is predicted to hit. Not all columns of the deposit are shown.

target	PubChem SID	droplet/nuclear area B-score, replicate 1
Dlip3	SID104187193	0.452
Ogg1	SID104197530	-1.95
CG11686	SID104194142	0.0139
Srp68	SID104190267	2.47
Wnt4	SID104180768	0.47
Wnt4	SID104183269	0.0825
CG11635 + spaw	SID104185867	0.0118
CG15711	SID104186374	0.665
CG3483	SID104184163	0.409
CG30471	SID104186888	1.54
Sap-r	SID104196641	-0.278
Sap-r	SID104201540	1.38
lectin-37Db	SID104183071	-1.51
Fancl	SID104194342	-0.0473
CG42521	SID104189946	0.275
Arf4	SID104196987	1.34
Moe	SID104198476	1.44
par-6	SID104200151	0.166
Prx6c	SID104185872	1.06
dsh	SID104199595	-1.06
Muc12Ea	SID104199729	-1.5
Set2	SID104199557	1.67
CG14072	SID104182167	2.6
nbs	SID104191165	-0.052
CG1722	SID104200339	-0.422
l(1)sc	SID104198581	0.831
Rtnl2	SID104192401	0.429
Rtnl2	SID104201344	-0.116
CG31686 (retired record)	SID104179894	0.157
kcc	SID104184108	-0.35
kcc	SID104184308	0.439
alpha-Est3	SID104192407	-2.89
CHMP2B	SID104190228	0.795
CG15525	SID104194854	-0.28
CG32259	SID104187874	0.00715
CG12576	SID104200413	-0.661
CG15740	SID104199498	0.603
CG15740	SID104202436	0.464
dally	SID104188746	1.03
dally	SID104191130	0.543
Ugt37B1	SID104183017	-0.328
Pde8	SID104184295	-0.0293
Son	SID104196192	0.605
CG2975	SID104180348	1.57
CG6000	SID104195730	0.21
CG32523	SID104200302	-0.041
CG3735	SID104184203	-0.519
CG13310	SID104189773	2.09
CG5880	SID104195698	0.0212
CG12523	SID104189687	-0.00414
alpha-Est2	SID104192406	-0.0205
CG32750	SID104198640	1.28
hh	SID104196757	0.919
Prx6c + CG12896 + Prx6b	SID104185940	4.94
Hmt-1	SID104195347	-1.8
CG13377	SID104198414	-2.13

Records listed so far whose gene name starts with K or k:
target	PubChem SID	droplet/nuclear area B-score, replicate 1
kcc	SID104184108	-0.35
kcc	SID104184308	0.439
